Test results from article PMC5602671.
No constants are given. Whether binding was seen depends on the method and setting.

Amino acid sequences for entries named in this document (tags omitted). A change or cut given only in a name is not applied to a line headed by its entry. Chains listed by the source or under a name are the forms on record and can include a tag or linker. Residues count along the entry.
UniProt P00772, residues 27-266: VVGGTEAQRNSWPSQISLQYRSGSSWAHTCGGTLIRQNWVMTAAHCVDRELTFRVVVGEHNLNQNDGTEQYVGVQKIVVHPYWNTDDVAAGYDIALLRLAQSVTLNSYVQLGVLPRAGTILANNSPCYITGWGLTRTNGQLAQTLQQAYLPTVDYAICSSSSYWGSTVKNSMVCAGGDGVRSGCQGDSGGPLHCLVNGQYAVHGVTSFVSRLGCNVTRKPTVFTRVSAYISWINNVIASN
human alpha 1-antitrypsin P357D (P01009, form named): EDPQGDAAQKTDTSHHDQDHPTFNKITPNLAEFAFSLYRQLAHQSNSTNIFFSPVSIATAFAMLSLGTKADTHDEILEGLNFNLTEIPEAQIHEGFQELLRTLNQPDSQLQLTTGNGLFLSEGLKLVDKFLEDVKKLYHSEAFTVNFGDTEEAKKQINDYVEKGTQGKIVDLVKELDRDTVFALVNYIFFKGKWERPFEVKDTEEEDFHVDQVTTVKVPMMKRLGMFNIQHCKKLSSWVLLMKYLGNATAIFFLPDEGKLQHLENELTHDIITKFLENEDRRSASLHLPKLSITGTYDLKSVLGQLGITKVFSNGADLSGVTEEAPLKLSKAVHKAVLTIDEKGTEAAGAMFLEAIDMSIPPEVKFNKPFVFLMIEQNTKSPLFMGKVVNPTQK

Experiments:
[1] = biological target: porcine pancreatic elastase (porcine) (UniProt P00772); assay: titration of residual elastase activity (association equilibrium constant Ka); A1AT 0-60 nM mixed with 10 nM PPE or HNE, 30 min at 25°C, 20 mM Tris·HCl, 5 mM CaCl2, 0.01% Tween 80, pH 8.0; residual activity on a synthetic substrate; Ka by linear regression of A1AT concentration over residual activity; both purified
[2] = biological target: porcine pancreatic elastase (porcine) (UniProt P00772); assay: SDS-resistant complex formation on SDS-PAGE; A1AT mixed with PPE at molar ratios 1/4, 1/2, 1/1, 2/1 and 4/1, 10 min at 25°C, 20 mM Tris·HCl, 5 mM CaCl2, 0.01% Tween 80, pH 8.0; heated in reducing SDS buffer, 10% gel, Coomassie, densitometry (percent given for the 2:1 ratio); both purified

## human alpha 1-antitrypsin P357D (from UniProt P01009 25-418)
[1]
  binding: no binding (tested: A1AT up to 60 nM with 10 nM PPE)
[2]
  binding: no binding (tested: molar ratios of A1AT to PPE 1/4 to 4/1)
